In PubChem BioAssay AID504444 (National Center for Advancing Translational Sciences (NCATS), 2011):
The campaign covered roughly 360,000 compounds. About 7,500 (2.1%) were called active. Inconclusive means that the source gave no clear call. Such entries were picked first, then a sample of the others. Calls follow the shape of the dose curve; as a rule, active = well fitted inhibition curve with a large enough effect; inconclusive = small, poorly fitted or top-dose-only effect, or effect the other way; inactive = flat fitted curve, though single readings scatter. Potencies of inconclusive entries are doubtful fits and often do not repeat.

assay: Nrf2 qHTS screen for inhibitors; settings: A549 ARE-Fluc reporter, luciferase luminescence, 18-24 h; series mostly up to 46 µM; also: nearly all actives have a fitted effect of over 60% in size
Procedure, shortened: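 Cells were seeded and rested 2 h, then exposed to compounds for 18-24 h. CellTiter-Fluor was read first as a viability measure. BugLite was added 15 min before the final luminescent read of ARE-luciferase activity in A549 cells.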
Potency is read from the fitted curve at half-maximal effect.

Structure (SMILES)	Potency
Cc1cc(OC(C)C(=O)Nc2ccncc2)ccc1Cl (stereo not drawn)	active: 18.4 µM
CCC(=O)N/C(N)=N/c1nc(C)c2cc(OC)ccc2n1	inactive
Cc1nc(N)sc1-c1csc(Nc2ccccn2)n1	inconclusive: 2.06 µM [activator, full curve]
COc1ccc(-c2noc(Cn3c(=O)c4ccccc4n(CC(=O)Nc4cccc(C(F)(F)F)c4)c3=O)n2)cc1	inconclusive: 20.6 µM [falling, single point]
CN1CCN(CCCNC(=O)c2ccc(CSCc3cccc(Cl)c3)o2)CC1	inactive
N#Cc1c(N)nc(SCc2ccccc2)c(C#N)c1-c1ccco1	active: 11.6 µM
COc1cccc(NC(=O)COC(=O)c2ccccc2C(=O)N2CCN(c3ccccc3)CC2)c1	inconclusive: 20.6 µM [falling, single point]
CCN(CC)S(=O)(=O)c1cccc(-c2n[nH]c(=S)n2/N=C/c2ccc(OC(F)F)cc2)c1	inconclusive: 25.9 µM [falling, single point]
Cc1ccc(OCC(=O)O/N=C(\N)c2ccncc2)c(C)c1	inconclusive: 2.31 µM [activator, full curve]
CCOc1ccc(N(CC)S(=O)(=O)N2CCCC(C(=O)NCc3ccc(Cl)cc3)C2)cc1 (stereo not drawn)	inconclusive: 29.1 µM [falling, single point]
COc1ccc(NC(=O)N2CCCC2C(=O)Nc2ccccc2F)cc1 (stereo not drawn)	inconclusive: 1.3 µM [falling, partial curve, poor fit]
Cc1ccc(CNS(=O)(=O)c2ccc(C(C)(C)C)cc2)n1C	inconclusive: 0.13 µM [activator, full curve, poor fit]
CC(=O)c1cccc(NC(=O)Nc2cnn(Cc3ccc(Cl)cc3Cl)c2)c1	inconclusive: 7.31 µM [falling, partial curve, poor fit]
COc1ccc(NC(=O)NC(=O)c2ccccc2)cc1	inconclusive: 0.326 µM [activator, full curve, poor fit]
COc1ccc(C)cc1NC(=O)c1cnc2n(c1=O)CCS2	inconclusive: 29.1 µM [activator, single point]
CCc1ncc(CN2CCCCC2C(=O)Nc2ccc(Oc3ccccc3)nc2)cn1 (stereo not drawn)	inconclusive: 32.6 µM [falling, single point]
CCc1ccc(/C=N/NC(=O)c2cc(-c3ccncc3)nc3ccccc23)s1	inconclusive: 25.9 µM [activator, single point]
COc1cccc(C2c3c(ncn(-c4ccc(C#N)cc4)c3=N)Oc3ccc4ccccc4c32)c1 (stereo not drawn)	inactive
O=C(Nc1ccc2nc(SCC(=O)N3CCCc4ccccc43)sc2c1)c1cccc(Cl)c1	inactive
COc1ccc(CCNC(=O)C2CCN(c3nc4ccccc4nc3C(F)(F)F)CC2)cc1OC	inconclusive: 1.64 µM [falling, partial curve, poor fit]
CCCCc1nc(NCCNC(=O)c2ccco2)c(C#N)c2c1CSC(C)(C)C2	inactive
CCOC(=O)CC(=O)CSc1ncnc2c1oc1ccccc12	inconclusive: 16.4 µM [activator, partial curve, poor fit]
COc1ccc2c(CC(=O)Nc3cccc(S(=O)(=O)N4CCOCC4)c3)coc2c1	inconclusive: 0.164 µM [falling, full curve, poor fit]

Structure (SMILES)	Potency
COc1cccc(NS(=O)(=O)c2ccc3c(c2)CCN3C(C)=O)c1	active: 10.3 µM
COc1ccc(N(C)C(=O)C2CCN(S(=O)(=O)c3cccc4nsnc34)CC2)cc1	active: 8.2 µM
Cc1ccc(NC(=O)CN2C(=O)CSc3ccc(S(=O)(=O)N4CCCC4)cc32)c(C)c1	inactive
O=C(CCc1nc2ccccc2c(=O)[nH]1)OCCOc1ccc(Cl)cc1	inconclusive: 0.0116 µM [activator, full curve, poor fit]
CCc1ccccc1Nc1cc(C(=O)NCCc2ccccc2)c2ccccc2n1	inconclusive: 23.1 µM [falling, single point]
COc1cc(OC)cc(C(=O)N[C@H](C(=O)Nc2nc(-c3cc(OC)ccc3OC)cs2)C(C)C)c1	inconclusive: 5.17 µM [falling, full curve, poor fit]
CN(C)CC/C=C1\c2cc(Cl)ccc2Sc2cc(F)c(F)cc21	inconclusive: 6.51 µM [activator, single point]
CCOC(=O)c1ccc2c(c1)N(Cc1cccc(C(F)(F)F)c1)C(=O)c1ccccc1S2(=O)=O	inactive
CCC(C)NC(=O)CCC(=O)Nc1ccc2nc(N3CC(C)CC(C)C3)cc(C)c2c1 (stereo not drawn)	inconclusive: 18.4 µM [activator, partial curve]
COc1ccc(NC(=O)CSCC(=O)N(C)Cc2ccc3c(c2)OCCO3)cc1	inactive
COC(=O)c1cc(NS(=O)(=O)c2ccc(C)c3ccccc23)ccc1N1CCOCC1	inactive
CC1CCc2cc(F)cc3c(O)c(C(=O)NCC4CCCO4)c(=O)n1c23 (stereo not drawn)	active: 16.4 µM
COc1ccc(OC)c(CCNc2nccn(-c3ccc(C)c(C)c3)c2=O)c1	inactive
O=C(NCC(c1cccnc1)N1CCOCC1)C(=O)Nc1ccc(F)cc1 (stereo not drawn)	active: 23.1 µM
CCOC(=O)CSc1nc2sc3c(c2c(=O)n1-c1ccc(OC)cc1)CCN(C)C3	inconclusive: 25.9 µM [falling, partial curve]
COc1cc(C2Nc3ccccc3C(=O)N2Cc2ccco2)ccc1O (stereo not drawn)	inactive
CC(C#N)(Nc1ccc(Cl)cc1)c1cccnc1 (stereo not drawn)	inactive
COc1cc(C(=O)Nc2nc(C)c(Cc3ccc4c(c3)OCO4)s2)cc(OC)c1OC	active: 14.6 µM
CNC(=S)Nc1cc(S(=O)(=O)Nc2cc(Cl)ccc2Cl)ccc1N1CCCC1	inconclusive: 16.4 µM [falling, partial curve]
CCOc1ccc(N2C(=O)C(c3ccccc3)=C(c3nc4ccccc4s3)C2NC(C)=O)cc1 (stereo not drawn)	inconclusive: 18.4 µM [falling, single point]
O=C(c1ccc(S(=O)(=O)N2CCCCCC2)cc1)N1CCN(Cc2ccccc2)CC1	inconclusive: 18.4 µM [falling, single point]
Cc1ccccc1-c1noc(-c2ccccc2C(=O)O)n1	inconclusive: 3.26 µM [activator, full curve]
CCn1c(SCc2nc(-c3ccccc3)no2)nc2ccccc21	inconclusive: 23.1 µM [falling, partial curve]

Structure (SMILES)	Potency
Cc1cc(C)cc(C(=O)Nc2ccc(N3CCN(S(C)(=O)=O)CC3)cc2)c1	inconclusive: 1.64 µM [falling, full curve, poor fit]
Cc1cc(NC(=O)c2cc3ccccc3o2)no1	inconclusive: 18.4 µM [falling, partial curve, poor fit]
Cc1ccc(NC2CCCN(C(=O)c3cn(C)c4ccccc34)C2)cc1C (stereo not drawn)	inconclusive: 29.1 µM [falling, single point]
O=C(CSc1nnc(SCc2cccc3ccccc23)s1)Nc1ccc(C(=O)O)cc1	inactive
Cc1cccc(N2CCN(C(=O)c3cc4n(n3)C(C(F)(F)F)CC(c3ccco3)N4)CC2)c1C (stereo not drawn)	inconclusive: 16.4 µM [falling, single point]
COc1cc(-c2nc3cc(C)ccn3c2NC2CCCCC2)ccc1-c1ccc(C(C)=O)cc1	inconclusive: 29.1 µM [falling, single point]
COc1ccc(NC(=O)C2=C(C)C(=O)OC23CCN(C(C)C)CC3)cc1Cl	inconclusive: 32.6 µM [activator, single point]
Cc1nc(NC(=O)c2ccco2)sc1C(=O)Nc1ccc(Br)cc1	inconclusive: 25.9 µM [falling, single point]
COc1ccc(C(=O)c2ccc(Cl)cc2)c2ccccc12	inconclusive: 16.4 µM [activator, single point]
CCn1c(SCC(=O)Nc2nc3c(s2)CCCC3)nnc1-c1ccccc1	inconclusive: 29.1 µM [falling, single point]
Cc1ccc(NC(=O)Nc2ccc(Cl)cn2)cc1	inconclusive: 4.61 µM [activator, full curve]
Cc1cc(NC(=O)CSc2nc(N)c(NC(=O)c3ccccc3)c(=O)[nH]2)no1	inactive
O=C(c1coc(=O)c(Br)c1)N1CCCc2ccccc21	inconclusive: 23.1 µM [activator, partial curve]
CCOC(=O)OCC(=O)C1(O)CCC2C3CCC4=CC(=O)CCC4(C)C3C(O)CC21C (stereo not drawn)	active: 0.206 µM
O=C(Nc1ccc2ccccc2c1)c1ccc(Cl)cc1Cl	inconclusive: 2.06 µM [activator, partial curve, poor fit]
CC(=O)Nc1ccc(-c2csc(Nc3ccccn3)n2)cc1	inconclusive: 1.3 µM [activator, partial curve]
COc1cc(Cl)c(C)cc1NC(=O)CN(C)Cc1cccc(OC)c1OC	inconclusive: 18.4 µM [falling, single point]
Cc1cc(C)n2nc(-c3ccco3)nc2n1	inactive
CC(C)(O)c1cc(=O)sc2nc3ccccc3n12	inconclusive: 2.59 µM [activator, full curve, poor fit]
CC(C)(C)c1nc(SCC(=O)c2ccccc2)c2ccccc2n1	inconclusive: 20.6 µM [activator, single point]
CC(=O)C1(O)CCC2C3CC(C)C4=CC(=O)C=CC4(C)C3(F)C(O)CC21C (stereo not drawn)	active: 0.0326 µM
CSc1nnnc2ccccc12	inconclusive: 4.11 µM [falling, full curve, poor fit]

Looked up one by one from the entries so far (3):
Structure (SMILES)	Potency
COc1cc(-c2nc3cc(C)ccn3c2NC2CCCCC2)ccc1-c1ccc(C(C)=O)cc1	inconclusive: 29.1 µM [falling, single point]
O=C(c1coc(=O)c(Br)c1)N1CCCc2ccccc21	inconclusive: 23.1 µM [activator, partial curve]
CCn1c(SCC(=O)Nc2nc3c(s2)CCCC3)nnc1-c1ccccc1	inconclusive: 29.1 µM [falling, single point]
